Results: publication PMC6398978
These are yes or no findings as the source states them, for the method shown. Binding seen in cells or lysates may run through a third protein. Some results given as binding are weak or reduced against the parent protein; the word gives no strength.

Protein sequences, listed by entry. Tags and fused reporters are not part of them.
UniProt P10085: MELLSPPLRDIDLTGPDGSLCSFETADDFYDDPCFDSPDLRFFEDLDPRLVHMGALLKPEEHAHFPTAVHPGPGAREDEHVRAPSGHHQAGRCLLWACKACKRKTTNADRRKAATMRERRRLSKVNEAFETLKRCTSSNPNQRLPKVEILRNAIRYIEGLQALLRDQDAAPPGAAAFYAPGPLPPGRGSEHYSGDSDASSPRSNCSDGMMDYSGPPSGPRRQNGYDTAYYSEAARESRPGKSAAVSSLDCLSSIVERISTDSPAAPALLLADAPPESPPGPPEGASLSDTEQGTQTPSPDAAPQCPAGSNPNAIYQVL
UniProt Q9WTL8: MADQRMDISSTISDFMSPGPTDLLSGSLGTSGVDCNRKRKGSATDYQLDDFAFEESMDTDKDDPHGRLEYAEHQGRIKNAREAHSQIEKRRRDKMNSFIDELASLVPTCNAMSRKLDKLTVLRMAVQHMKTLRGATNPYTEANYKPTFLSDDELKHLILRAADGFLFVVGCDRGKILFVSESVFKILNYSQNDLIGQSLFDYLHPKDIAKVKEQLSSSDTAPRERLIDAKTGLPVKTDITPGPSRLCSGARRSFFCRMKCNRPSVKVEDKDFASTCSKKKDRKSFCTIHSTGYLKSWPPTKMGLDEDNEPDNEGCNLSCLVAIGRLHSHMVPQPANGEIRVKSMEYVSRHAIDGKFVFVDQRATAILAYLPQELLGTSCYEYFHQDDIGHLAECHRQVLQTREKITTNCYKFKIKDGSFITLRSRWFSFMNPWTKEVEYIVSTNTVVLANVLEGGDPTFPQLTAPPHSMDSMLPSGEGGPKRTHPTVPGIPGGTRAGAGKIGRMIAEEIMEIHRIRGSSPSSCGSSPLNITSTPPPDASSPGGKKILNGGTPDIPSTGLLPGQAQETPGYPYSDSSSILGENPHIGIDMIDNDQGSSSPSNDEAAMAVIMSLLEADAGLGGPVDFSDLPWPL

How the values were obtained:
[1] = target: VN-MYOD1 (UniProt P10085); assay: split reporter; Venus BiFC with the fragments swapped (VN-MYOD1 with VC-CLOCK or VC-BMAL1); data not shown
[2] = target: VN-BMAL1 (UniProt Q9WTL8); assay: split reporter; Venus BiFC in C2C12 myoblasts; 250 ng of each VN and VC plasmid co-transfected with 100 ng mCherry; Leica SP8 confocal microscope 24 hr post transfection

B1: VC-CLOCK (protein, UniProt O08785 1-855)
chain: MVFTVSCSKMSSIVDRDDSSIFDGLVEEDDKDKAKRVSRNKSEKKRRDQFNVLIKELGSMLPGNARKMDKSTVLQKSIDFLRKHKETTAQSDASEIRQDWKPTFLSNEEFTQLMLEALDGFFLAIMTDGSIIYVSESVTSLLEHLPSDLVDQSIFNFIPEGEHSEVYKILSTHLLESDSLTPEYLKSKNQLEFCCHMLRGTIDPKEPSTYEYVRFIGNFKSLTSVSTSTHNGFEGTIQRTHRPSYEDRVCFVATVRLATPQFIKEMCTVEEPNEEFTSRHSLEWKFLFLDHRAPPIIGYLPFEVLGTSGYDYYHVDDLENLAKCHEHLMQYGKGKSCYYRFLTKGQQWIWLQTHYYITYHQWNSRPEFIVCTHTVVSYAEVRAERRRELGIEESLPETAADKSQDSGSDNRINTVSLKEALERFDHSPTPSASSRSSRKSSHTAVSDPSSTPTKIPTDTSTPPRQHLPAHEKMTQRRSSFSSQSINSQSVGPSLTQPAMSQAANLPIPQGMSQFQFSAQLGAMQHLKDQLEQRTRMIEANIHRQQEELRKIQEQLQMVHGQGLQMFLQQSNPGLNFGSVQLSSGNSNIQQLTPVNMQGQVVPANQVQSGHISTGQHMIQQQTLQSTSTQQSQQSVMSGHSQQTSLPSQTPSTLTAPLYNTMVISQPAAGSMVQIPSSMPQNSTQSATVTTFTQDRQIRFSQGQQLVTKLVTAPVACGAVMVPSTMLMGQVVTAYPTFATQQQQAQTLSVTQQQQQQQQQPPQQQQQQQQSSQEQQLPSVQQPAQAQLGQPPQQFLQTSRLLHGNPSTQLILSAAFPLQQSTFPPSHHQQHQPQQQQQLPRHRTDSLTDPSKVQPQ
B1 was tested, and the binding [1] was “binds”.

B2: VC-BMAL2 (protein, UniProt Q2VPD4 1-579)
chain: MEFPRKRRGRDSQPLQSEFMTDTTVESLPQNPFASLLSTRTGVSAPSGIREAHSQMEKRRRDKMNHLIQKLSSMIPPHIPTAHKLDKLSVLRRAVQYLRSLRGMTELYLGENSKPSFIQDKELSHLILKAAEGFLFVVGCERGRIFYVSKSVSKTLRYDQASLIGQNLFDFLHPKDVAKVKEQLSCDGSPREKPIDTKTSQVYSHPYTGRPRMHSGSRRSFFFRMKSCTVPVKEEQPCSSCSKKKDHRKFHTVHCTGYLRSWPLNVVGMEKESGGGKDSGPLTCLVAMGRLHPYIVPQKSGKINVRPAEFITRFAMNGKFVYVDQRATAILGYLPQELLGTSCYEYFHQDDHSSLTDKHKAVLQSKEKILTDSYKFRVKDGAFVTLKSEWFSFTNPWTKELEYIVSVNTLVLGRSETRLSLLHCGGSSQSSEDSFRQSCINVPGVSTGTVLGAGSIGTDIANEVLSLQRLHSSSPEDASPSEEVRDDCSVNGGNAYGPASTREPFAVSPSETEVLEAARQHQSTEPAHPHGPLPGDSAQLGFDVLCDSDSIDMAAFMNYLEAEGGLGDPGDFSDIQWAL
In the case of B2, the binding [2] is reported as “no binding”.
